First the molecules themselves.
B1: glmS ribozyme (parent)
chain: AUAAAAGCGCCAGAACUACAGAAAUGUAGUUGACGAGGAGGAGGUUUAUCGAAUUUUCGGCGGAUGCCUCCAAA

± gives the standard error. Many entries were measured with a wide error.

One data set covers variants of B1. Briefly: self-cleavage kobs at 2500 uM GlcN6P; higher = faster cleavage; RNA array. Conditions: with glucosamine-6-phosphate. The method in brief:
(§1)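 Tiles of sequenced MiSeq chips were imaged over ~14 h at 37 °C. On them, barcoded ribozyme variants had been transcribed in situ by E. coli RNA polymerase and were tracked via a hybridised Cy3 probe while glucosamine-6-phosphate (40 μM to 10 mM) in HEPES/KCl/Mg(OAc)2 buffer flowed in. Per-tile medians, normalised to baseline and to non-cleaving reference variants, were fit to one- or two-exponential decays for kobs, and weighted Michaelis–Menten fits gave kcat and KM.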
As to C16G G41A U55A, the “self-cleavage kobs at 2500 uM GlcN6P” value worked out at 4.16e-05 ± 3.5e-05 s⁻¹. On the same count and under the same terms, the same measure for G32C G37A U55A C67A C68A: 6.66e-05 ± 3.3e-05 s⁻¹; for A33U U47A G66A: 2.64e-05 ± 1.7e-05 s⁻¹.

In the case of C11A G66A, the “self-cleavage kobs at 2500 uM GlcN6P” value came to 5.6e-05 ± 3.3e-05 s⁻¹.

In the case of C10U U31G, the “self-cleavage kobs at 2500 uM GlcN6P” value turned out to be 2.05e-05 ± 1.4e-05 s⁻¹. Take C16A U31C G60A C68G: the “self-cleavage kobs at 2500 uM GlcN6P” value came out at 4.03e-05 ± 3.1e-05 s⁻¹. On to U65C C68U, for which the “self-cleavage kobs at 2500 uM GlcN6P” value came out at 2e-05 ± 1.5e-05 s⁻¹. As to A52C C67U, the “self-cleavage kobs at 2500 uM GlcN6P” value was found to be 1.73e-05 ± 1.7e-05 s⁻¹. The same measure, in the same setting: the same measure for C10U A15G C67G: 1.97e-05 ± 1.6e-05 s⁻¹; for G32A C68A: 2.04e-05 ± 1.8e-05 s⁻¹; for A36U A52G C70A: 6.78e-05 ± 3.7e-05 s⁻¹.

With A14G U31A U57A C71G, the “self-cleavage kobs at 2500 uM GlcN6P” value turned out to be 3.96e-05 ± 2.7e-05 s⁻¹. The same measure, in the same setting: the same measure for A33U U57A C58U C70A C71G: 3.22e-05 ± 2.1e-05 s⁻¹; for A14U A48G: 2.01e-05 ± 1.4e-05 s⁻¹. As for U30A G59A, the “self-cleavage kobs at 2500 uM GlcN6P” value worked out at 1.72e-05 ± 1.3e-05 s⁻¹. With A15C A36U C67A C68G, the “self-cleavage kobs at 2500 uM GlcN6P” value is 2.78e-05 ± 2.5e-05 s⁻¹. As to G60U C61A C67A C70A, the “self-cleavage kobs at 2500 uM GlcN6P” value came to 3.4e-05 ± 2.4e-05 s⁻¹.

Turning to A15U C50A C68U, the “self-cleavage kobs at 2500 uM GlcN6P” value amounted to 3.48e-05 ± 2.4e-05 s⁻¹. As to A33C U47G, the “self-cleavage kobs at 2500 uM GlcN6P” value turned out to be 1.45e-05 ± 1.3e-05 s⁻¹. On to G37A A52G C67A, for which the “self-cleavage kobs at 2500 uM GlcN6P” value amounted to 3.36e-05 ± 1.9e-05 s⁻¹. The same measure, in the same setting: to C16U A39G G66A belongs 0.0191 ± 0.011 s⁻¹; to U31G A36G U69A, 4.18e-05 ± 3.1e-05 s⁻¹; to A12C G32C, 1.31e-05 ± 1.1e-05 s⁻¹. Same read-out and setting: the same measure for A14G C61G G66U C67G: 3.97e-05 ± 2.6e-05 s⁻¹; for A15C C70A C71A: 3.6e-05 ± 2.6e-05 s⁻¹. Take A15U C16G G32C: the “self-cleavage kobs at 2500 uM GlcN6P” value was 4.12e-05 ± 2.4e-05 s⁻¹. On the same count and under the same terms, to A36C A52U U56G U65A U69A belongs 2.23e-05 ± 1.9e-05 s⁻¹; to C10U G63U C68G, 4.77e-05 ± 2.9e-05 s⁻¹; to G60A C68A, 0.000533 ± 0.00036 s⁻¹.

On to C11U U30A C67U, for which the “self-cleavage kobs at 2500 uM GlcN6P” value came out at 0.000345 ± 0.00019 s⁻¹. Take A12C G44C: the “self-cleavage kobs at 2500 uM GlcN6P” value was 1.91e-05 ± 1.4e-05 s⁻¹.

Turning to C10A C71A, the “self-cleavage kobs at 2500 uM GlcN6P” value was determined as 1.87e-05 ± 1.8e-05 s⁻¹. As to G13U U30A A53G, the “self-cleavage kobs at 2500 uM GlcN6P” value turned out to be 2.77e-05 ± 1.4e-05 s⁻¹.

With G44U U45G A53C, the “self-cleavage kobs at 2500 uM GlcN6P” value came to 0.000862 ± 0.00046 s⁻¹. On the same count and under the same terms, to C11A A53C U69G belongs 0.000101 ± 5.5e-05 s⁻¹. Same read-out and setting: to G13A G62U C70G belongs 4.03e-05 ± 3.6e-05 s⁻¹; to C58A G62C C70G, 3.21e-05 ± 2.2e-05 s⁻¹. Take U17C A18U C19A A20C G21A A22G U25A G26U U56A C67U: the “self-cleavage kobs at 2500 uM GlcN6P” value worked out at 4.73e-05 ± 2.4e-05 s⁻¹.

Take G43U U46G: the “self-cleavage kobs at 2500 uM GlcN6P” value stood at 3.53e-05 ± 2e-05 s⁻¹. Take G59A G62A C70G: the “self-cleavage kobs at 2500 uM GlcN6P” value worked out at 2.14e-05 ± 2e-05 s⁻¹.

In the case of A15G G37C C68A C70U, the “self-cleavage kobs at 2500 uM GlcN6P” value was found to be 3.58e-05 ± 3.3e-05 s⁻¹. G29A A52U U55C: the “self-cleavage kobs at 2500 uM GlcN6P” value is 2.42e-05 ± 2.1e-05 s⁻¹.

A33U U47G U55C: the “self-cleavage kobs at 2500 uM GlcN6P” value is 1.97e-05 ± 1.1e-05 s⁻¹. Turning to A33U G35A C50G, the “self-cleavage kobs at 2500 uM GlcN6P” value was determined as 4.33e-05 ± 2.9e-05 s⁻¹. As for A15U A33C A42G, the “self-cleavage kobs at 2500 uM GlcN6P” value stood at 4.74e-05 ± 3.6e-05 s⁻¹. The same measure, in the same setting: the same measure for A6G G40A: 2.09e-05 ± 2.1e-05 s⁻¹; for U46G C50U C67U C68A U69G: 9.56e-05 ± 5.9e-05 s⁻¹; for G35C C50G C58A: 3.38e-05 ± 2.5e-05 s⁻¹. Still for that read-out and setting: to G35A G60U C67G C68G belongs 4.81e-05 ± 3e-05 s⁻¹; to G59A C67A, 2.45e-05 ± 1.4e-05 s⁻¹; to C16G C68A, 2.5e-05 ± 1.5e-05 s⁻¹. In the case of C8U C16U C50G G60A G66U, the “self-cleavage kobs at 2500 uM GlcN6P” value amounted to 8.21e-05 ± 4.8e-05 s⁻¹. Still for that read-out and setting: to C11G A52G C68U belongs 8.75e-05 ± 6.2e-05 s⁻¹. Still for that read-out and setting: to U46A C68U U69C belongs 3.92e-05 ± 2.8e-05 s⁻¹; to U47A C58U, 2.83e-05 ± 1.7e-05 s⁻¹. For U31G U55C C58G, the “self-cleavage kobs at 2500 uM GlcN6P” value turned out to be 2.73e-05 ± 1.7e-05 s⁻¹. Same read-out and setting: to A15U U30A belongs 0.0355 ± 0.026 s⁻¹; to G29C U30C G51A A52U U55G G60C C70G, 3.91e-05 ± 2.4e-05 s⁻¹; to G13A U69A C70G, 5.16e-05 ± 2.9e-05 s⁻¹.

A further data set covers variants of B1. The data set is described as follows: self-cleavage kobs at 10000 uM GlcN6P; higher = faster cleavage; RNA array. The note with it: with glucosamine-6-phosphate. The method in brief: as §1
In the case of C10U U31G, the “self-cleavage kobs at 10000 uM GlcN6P” value was 2.12e-05 ± 1.5e-05 s⁻¹. The same measure, in the same setting: the same measure for C10U U31A: 1.81e-05 ± 1.6e-05 s⁻¹; for U65C C68U: 2.09e-05 ± 1.1e-05 s⁻¹. The same measure, in the same setting: the same measure for A36U A52G C70A: 3.08e-05 ± 1.6e-05 s⁻¹; for A15U G35U G51U U54A U69G: 4.25e-05 ± 2.4e-05 s⁻¹.

As for G7A C8U A53C U55A U69A, the “self-cleavage kobs at 10000 uM GlcN6P” value was 3.13e-05 ± 2.1e-05 s⁻¹. Turning to C10U A15G G32A G63U U69G, the “self-cleavage kobs at 10000 uM GlcN6P” value worked out at 2.42e-05 ± 2e-05 s⁻¹. Regarding U30C U65A, the “self-cleavage kobs at 10000 uM GlcN6P” value amounted to 1.99e-05 ± 1.2e-05 s⁻¹.

With U31A C68A, the “self-cleavage kobs at 10000 uM GlcN6P” value amounted to 2.09e-05 ± 1.3e-05 s⁻¹. As to C10G G32U C58A C70G, the “self-cleavage kobs at 10000 uM GlcN6P” value was 2.69e-05 ± 1.8e-05 s⁻¹.

As for A6U A39C, the “self-cleavage kobs at 10000 uM GlcN6P” value came to 2.37e-05 ± 1.2e-05 s⁻¹. Same read-out and setting: the same measure for U57A C68G: 1.49e-05 ± 1.2e-05 s⁻¹; for A12G C16G A53U C71A: 2.69e-05 ± 2.1e-05 s⁻¹; for U30C G32C G35C C50G G62U: 3.05e-05 ± 2.2e-05 s⁻¹. Consider A15G U30G G44U, for which the “self-cleavage kobs at 10000 uM GlcN6P” value worked out at 2.58e-05 ± 1.5e-05 s⁻¹. The same measure, in the same setting: to C10U C16U belongs 1.16e-05 ± 8.8e-06 s⁻¹; to C10A A12G C16U C68U U69G, 3.44e-05 ± 2.5e-05 s⁻¹; to G43U U46G, 2.29e-05 ± 1.7e-05 s⁻¹. Still for that read-out and setting: to C11U A15G C50G belongs 3.01e-05 ± 1.7e-05 s⁻¹; to A6G G40A, 2.1e-05 ± 1.1e-05 s⁻¹. Same read-out and setting: to G59A C67A belongs 1.13e-05 ± 8.7e-06 s⁻¹. C16G G29C G44C: the “self-cleavage kobs at 10000 uM GlcN6P” value turned out to be 3.12e-05 ± 1.6e-05 s⁻¹.

Variants of B1 are the subject of the next data set. Briefly: self-cleavage kobs at 160 uM GlcN6P; higher = faster cleavage; RNA array. Conditions: with glucosamine-6-phosphate. The method in brief:
as §1
With U47A C68G, the “self-cleavage kobs at 160 uM GlcN6P” value was 2.85e-05 ± 1.8e-05 s⁻¹.

As for U57A C68G, the “self-cleavage kobs at 160 uM GlcN6P” value is 2.82e-05 ± 1.5e-05 s⁻¹. On the same count and under the same terms, to C58A G62C C70G belongs 2.82e-05 ± 2e-05 s⁻¹.

Consider G40A A52G, for which the “self-cleavage kobs at 160 uM GlcN6P” value was found to be 2.05e-05 ± 1.2e-05 s⁻¹.

With A33U G35A C50G, the “self-cleavage kobs at 160 uM GlcN6P” value worked out at 9.75e-05 ± 6.6e-05 s⁻¹. The same measure, in the same setting: the same measure for U47G C50G: 3.72e-05 ± 2e-05 s⁻¹; for G59A C67G: 1.63e-05 ± 1.3e-05 s⁻¹.
